From patent US20100280047A1, “SALTS OF ACTIVE INGREDIENTS WITH POLYMERIC COUNTER-IONS” (BASF SE, priority 2007, published 2010)
Like-named read-outs stand apart in the source and are kept apart here.

Concentration of dissolved cinnarizine (10% by wt. polymer A in water, stirred 72 h): 2800 µg/mL
Concentration of dissolved cinnarizine (10% by wt. polymer C in water, stirred 72 h): 4000 µg/mL
Concentration of dissolved cinnarizine (10% by wt. polymer D in water, stirred 72 h): 4100 µg/mL
Concentration of dissolved cinnarizine (20% by wt. polymer A in water, stirred 72 h): 9600 µg/mL
Concentration of dissolved cinnarizine (20% by wt. polymer C in water, stirred 72 h): 10100 µg/mL
Concentration of dissolved cinnarizine (20% by wt. polymer D in water, stirred 72 h): 10500 µg/mL
Concentration of dissolved cinnarizine (demineralized water, 0% polymer, stirred 72 h): 10 µg/mL
Concentration of dissolved cinnarizine (hydrochloric acid 10%, no polymer (cinnarizine hydrochloride is formed)): <790 µg/mL
Compound: C(=C\c1ccccc1)/CN1CCN(C(c2ccccc2)c2ccccc2)CC1 [cinnarizine]
